We go through 3 molecules from publication PMC9809949.

Protein sequences, listed by entry. Tags and fused reporters are not part of them. Residues count along the entry.
UniProt P08195, residues 102-630: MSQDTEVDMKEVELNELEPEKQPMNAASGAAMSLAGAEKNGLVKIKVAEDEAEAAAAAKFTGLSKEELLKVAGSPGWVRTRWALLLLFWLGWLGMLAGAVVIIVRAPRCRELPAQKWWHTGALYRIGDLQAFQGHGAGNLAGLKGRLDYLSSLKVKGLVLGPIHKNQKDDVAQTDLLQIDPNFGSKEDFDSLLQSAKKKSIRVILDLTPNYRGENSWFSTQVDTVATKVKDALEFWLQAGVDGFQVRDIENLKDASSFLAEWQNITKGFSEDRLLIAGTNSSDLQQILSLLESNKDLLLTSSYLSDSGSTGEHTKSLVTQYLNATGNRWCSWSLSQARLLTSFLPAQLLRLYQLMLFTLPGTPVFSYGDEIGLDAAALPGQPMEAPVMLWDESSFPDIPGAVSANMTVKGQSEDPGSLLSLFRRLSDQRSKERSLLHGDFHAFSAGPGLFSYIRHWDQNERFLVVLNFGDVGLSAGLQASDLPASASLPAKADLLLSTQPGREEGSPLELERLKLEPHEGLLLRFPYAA
UniProt P10852: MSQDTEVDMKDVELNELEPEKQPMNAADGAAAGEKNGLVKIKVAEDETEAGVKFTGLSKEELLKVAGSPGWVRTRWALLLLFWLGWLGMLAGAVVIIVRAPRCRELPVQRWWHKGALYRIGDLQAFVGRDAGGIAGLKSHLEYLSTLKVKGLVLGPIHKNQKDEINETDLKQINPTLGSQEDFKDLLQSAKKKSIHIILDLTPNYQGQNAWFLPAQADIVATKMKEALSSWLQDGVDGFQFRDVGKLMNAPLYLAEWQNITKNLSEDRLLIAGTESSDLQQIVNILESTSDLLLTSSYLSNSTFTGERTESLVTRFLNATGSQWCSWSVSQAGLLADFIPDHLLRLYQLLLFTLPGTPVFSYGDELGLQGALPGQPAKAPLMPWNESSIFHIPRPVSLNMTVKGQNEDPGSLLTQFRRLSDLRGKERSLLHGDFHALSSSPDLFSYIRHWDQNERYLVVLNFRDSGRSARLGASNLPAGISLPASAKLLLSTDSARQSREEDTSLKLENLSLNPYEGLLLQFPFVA

Numbering of substitutions follows the chain as printed. These are yes or no findings as the source states them, for the method shown. Binding seen in cells or lysates may run through a third protein. Some entries that bind do so weakly or less than the wild type. For part of these data: Sequences can lack the tags named with a protein.

One assay deals with T1, FLAG-DNAJC5/CSPα WT (UniProt Q9H3Z4).
T1 sequence: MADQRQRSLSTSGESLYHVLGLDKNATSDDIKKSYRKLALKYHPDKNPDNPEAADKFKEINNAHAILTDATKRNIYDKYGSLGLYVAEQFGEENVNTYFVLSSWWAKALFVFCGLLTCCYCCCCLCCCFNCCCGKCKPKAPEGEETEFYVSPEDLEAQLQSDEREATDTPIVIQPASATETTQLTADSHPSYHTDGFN
Kind of assay: co-IP; FLAG M2 agarose beads incubated with lysates containing tagged DNAJC5 for 1 h at 4°C; endogenous SLC3A2 detected by immunoblotting. (In general: In western blotting, separated proteins are transferred to a membrane and probed.)

The target in assay [1] is SLC3A2::GFP (GFP tag at the endogenous SLC3A2 locus) (human (endogenous in HEK293T)) (UniProt P08195). Kind of assay: co-IP; GFP-Trap beads on lysates of SLC3A2::GFP cells transfected with DNAJC5 variants, 1 h at 4°C; DNAJC5 detected by immunoblotting and normalised to DNAJC5 in lysates.
In assay [2] the target is SLC3A2 (endogenous, mouse primary neurons) (mouse (endogenous in primary neurons)) (UniProt P10852). In words: co-IP; endogenous proteins, mouse cortical neuron lysates in CHAPS or NP40 lysis buffer; SLC3A2 antibody or rabbit IgG overnight at 4°C, protein A beads; immunoblotting.

For the molecule “SLC3A2/CD98hc (endogenous) (from UniProt P08195 1-529)”, the binding entry in the assay with FLAG-DNAJC5/CSPα WT is “binds”.

B1: FLAG-DNAJC5/CSPα WT (protein, UniProt Q9H3Z4 1-198)
chain: T1 sequence
Regarding B1, the binding result in assay [1] is recorded as “binds”.

B2: DNAJC5 (endogenous, mouse primary neurons) (protein, UniProt P60904 1-198)
chain: T1 sequence with F112V
With B2, in assay [2], the binding entry is “binds”.
